Patent publication US12576075B2, “Combination therapies for treating cancer” (Institute For Cancer Research, priority 2018, dated 2026)

Test system: 786-O cells
Assay: Dose-dependent anti-proliferative effects on 786-O cells (dose response)
Format: cell-based
Settings: Homo sapiens, 786-0, single drug dose response, read-out: ED50 (the source's name)

CNC(=O)c1ccccc1Sc1ccc2c(/C=C/c3ccccn3)n[nH]c2c1 [Axitinib, axitinib]
EC50: 1900 nM
